In PMC5554785 one finds binding data, which are given here for two molecules.

Results are given in words; binding and its absence hold for the method and conditions named. In cells and extracts the contact can be indirect. Binding can be weak; no strength is given. For some assays here: Tags and fused reporters may be left off the sequences shown.

Experiment [1] concerns the target T1, germline nuclear Argonaute HRDE-1 (C. elegans) (UniProt Q09249).
T1 sequence: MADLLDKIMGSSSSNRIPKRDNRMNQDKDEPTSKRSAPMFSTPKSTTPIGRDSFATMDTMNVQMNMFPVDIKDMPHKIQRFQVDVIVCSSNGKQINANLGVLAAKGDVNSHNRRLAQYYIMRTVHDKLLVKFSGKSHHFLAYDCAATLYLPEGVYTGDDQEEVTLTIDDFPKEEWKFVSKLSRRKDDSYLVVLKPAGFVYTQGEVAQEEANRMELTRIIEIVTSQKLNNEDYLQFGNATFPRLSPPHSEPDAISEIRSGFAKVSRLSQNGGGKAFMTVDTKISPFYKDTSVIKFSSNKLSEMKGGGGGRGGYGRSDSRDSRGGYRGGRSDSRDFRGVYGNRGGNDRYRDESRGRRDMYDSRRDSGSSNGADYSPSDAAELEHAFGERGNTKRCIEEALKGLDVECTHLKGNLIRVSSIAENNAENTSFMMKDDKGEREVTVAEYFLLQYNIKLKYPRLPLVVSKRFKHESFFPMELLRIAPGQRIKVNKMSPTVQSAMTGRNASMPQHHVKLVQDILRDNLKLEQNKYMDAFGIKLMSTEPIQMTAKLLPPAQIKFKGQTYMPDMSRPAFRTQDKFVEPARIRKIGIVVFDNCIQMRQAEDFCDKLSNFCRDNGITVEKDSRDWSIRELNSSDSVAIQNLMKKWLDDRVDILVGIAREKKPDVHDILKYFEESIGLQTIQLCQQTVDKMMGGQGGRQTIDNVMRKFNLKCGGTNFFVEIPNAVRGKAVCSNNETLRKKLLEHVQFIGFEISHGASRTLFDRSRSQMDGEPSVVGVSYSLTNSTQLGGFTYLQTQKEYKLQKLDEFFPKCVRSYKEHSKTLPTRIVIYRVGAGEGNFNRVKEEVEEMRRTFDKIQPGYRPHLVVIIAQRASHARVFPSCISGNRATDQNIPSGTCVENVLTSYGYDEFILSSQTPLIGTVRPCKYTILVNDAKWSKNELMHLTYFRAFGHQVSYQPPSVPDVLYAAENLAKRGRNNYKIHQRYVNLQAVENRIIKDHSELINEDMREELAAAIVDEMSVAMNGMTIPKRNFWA
Put plainly: co-IP; anti-HRDE-1 IP (IgG negative control) from lysate of the OLLAS-EMB-4 strain in DROSO buffer with 0.1% NP-40, with or without RNaseA for 30 min at room temperature before the antibody, overnight at 4°C; western blot with anti-Ollas.

Experiment [2] concerns the target RNA helicase Aquarius/EMB-4 (C. elegans). The experiment in a line: co-IP; IP with EMB-4 antibody or anti-Flag (no antibody control) from gravid adult lysate of the FLAG-HRDE-1 strain in DROSO complete buffer, two hours at 4°C; western blot with anti-EMB-4 or anti-FLAG. On the technique in general: A western blot detects proteins with antibodies after separation by electrophoresis.

With “OLLAS-EMB-4 (CRISPR-tagged endogenous EMB-4) (C. elegans)”, the binding entry in experiment [1] was “binds”.

B1: FLAG-tagged version of HRDE-1 (protein, UniProt Q09249 1-1032)
chain: MADLLDKIMGSSSSNRIPKRDNRMNQDKDEPTSKRSAPMFSTPKSTTPIGRDSFATMDTMNVQMNMFPVDIKDMPHKIQRFQVDVIVCSSNGKQINANLGVLAAKGDVNSHNRRLAQYYIMRTVHDKLLVKFSGKSHHFLAYDCAATLYLPEGVYTGDDQEEVTLTIDDFPKEEWKFVSKLSRRKDDSYLVVLKPAGFVYTQGEVAQEEANRMELTRIIEIVTSQKLNNEDYLQFGNATFPRLSPPHSEPDAISEIRSGFAKVSRLSQNGGGKAFMTVDTKISPFYKDTSVIKFSSNKLSEMKGGGGGRGGYGRSDSRDSRGGYRGGRSDSRDFRGVYGNRGGNDRYRDESRGRRDMYDSRRDSGSSNGADYSPSDAAELEHAFGERGNTKRCIEEALKGLDVECTHLKGNLIRVSSIAENNAENTSFMMKDDKGEREVTVAEYFLLQYNIKLKYPRLPLVVSKRFKHESFFPMELLRIAPGQRIKVNKMSPTVQSAMTGRNASMPQHHVKLVQDILRDNLKLEQNKYMDAFGIKLMSTEPIQMTAKLLPPAQIKFKGQTYMPDMSRPAFRTQDKFVEPARIRKIGIVVFDNCIQMRQAEDFCDKLSNFCRDNGITVEKDSRDWSIRELNSSDSVAIQNLMKKWLDDRVDILVGIAREKKPDVHDILKYFEESIGLQTIQLCQQTVDKMMGGQGGRQTIDNVMRKFNLKCGGTNFFVEIPNAVRGKAVCSNNETLRKKLLEHVQFIGFEISHGASRTLFDRSRSQMDGEPSVVGVSYSLTNSTQLGGFTYLQTQKEYKLQKLDEFFPKCVRSYKEHSKTLPTRIVIYRVGAGEGNFNRVKEEVEEMRRTFDKIQPGYRPHLVVIIAQRASHARVFPSCISGNRATDQNIPSGTCVENVLTSYGYDEFILSSQTPLIGTVRPCKYTILVNDAKWSKNELMHLTYFRAFGHQVSYQPPSVPDVLYAAENLAKRGRNNYKIHQRYVNLQAVENRIIKDHSELINEDMREELAAAIVDEMSVAMNGMTIPKRNFWA
Regarding B1, the binding entry in experiment [2] is listed as “binds”.
